Reference: the supplement of paper PMC7877785
± gives the uncertainty stated by the source. Many of these values have a large error.

Test: self-splicing fitness, log relative to wild type (ln ratio); higher = more splicing; Tetrahymena group I intron in knt gene, E. coli kanamycin selection, DiMSum; sequences stand for … in CUCUCU…GGAGGGAAAAGUUAUCAGGCAUGCACCUGGUAGCUAGUCUUUAAACCAAUAGAUUGCAUCGGUUUAAAAGGCAAGACCGUCAAAUUGCGGGAAAGGGGUCAACAGCCGUUCAGUACCAAGUCUCAGGGGAAACUUUGAGAUGGCCUUGCAAAGGGUAUGGUAAUAAGCUGACGGACAUGGUCCUAACCACGCAGCCAAGUCCUAAGUCAACAGAUCUUCUGUUGAUAUGGAUGCAGUUCACAGACUAAAUGUCGGUCGGGGAAGAUGUAUUCUUCUCAUAAGAUAUAGUCGGACCUCUCCUUAAUGGGAGCUAGCGGAUGAAGUGAUGCAACACUGGAGCCGCUGGGAACUAAUUUGUAUGCGAAAGUAUAUUGAUUAGUUUUGGAGUACUCGUGGUCG
In short: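 Pooled colonies went to amplicon sequencing on an Illumina HiSeq 2500 after six replicate transformations. The plates were LB agar with 100 μg/mL carbenicillin, 50 μM IPTG and 0.2% rhamnose, with or without 25 μg/mL kanamycin, incubated overnight at 37°C or 30°C. The E. coli BL21(DE3) library had all eight P1ex-region intron nucleotides randomised, the intron placed in the knt kanamycin-resistance gene on pET-22b(+). DiMSum fitness is the error-weighted combination of replicate fold changes, kanamycin against none, normalised to wild type.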

Sequence	self-splicing fitness (ln) (30 °C)	self-splicing fitness (ln) (37 °C)
GCCUAGCAAUAUUACGAUAG	-3.27 ± 0.52	-4.09 ± 0.72
AGCCAGCAAUAUUACGCCGA	-2.61 ± 0.51	
UUGGAGCAAUAUUACGAUGC		-2.23 ± 0.51
AGCGAGCAAUAUUACGCGUC		-2.64 ± 0.62
CAUCAGCAAUAUUACGAAAA	-4.02 ± 0.52	
CAGCAGCAAUAUUACGAUGA	-2.7 ± 0.21	-1.31 ± 0.14
AUUGAGCAAUAUUACGUCCA	-3.81 ± 0.52	-2.01 ± 0.55
GGGUAGCAAUAUUACGUCAC		-1.43 ± 0.57
GCUCAGCAAUAUUACGAGGG	-2.38 ± 0.16	-2.57 ± 0.25
AUUGAGCAAUAUUACGAUCG	-2.34 ± 0.34	-1.04 ± 0.19
CCUUAGCAAUAUUACGGGAC		-3.52 ± 0.52
CGCGAGCAAUAUUACGUCCU	-0.995 ± 1.2	
UUCUAGCAAUAUUACGCGCU	-2.95 ± 1.1	
GCAGAGCAAUAUUACGUCUC	-4.26 ± 1	
UCAGAGCAAUAUUACGACAA	-2.11 ± 0.8	
CUAUAGCAAUAUUACGCGGA		-1.54 ± 0.69
GUGCAGCAAUAUUACGCUUC	-2.46 ± 0.66	-2 ± 0.5
UGGUAGCAAUAUUACGCGGC	-0.135 ± 0.87	-1.65 ± 0.8
AUAGAGCAAUAUUACGAAAU	-0.572 ± 0.1	0.0653 ± 0.13
UCGGAGCAAUAUUACGCGAC	-3.31 ± 1	
CGAGAGCAAUAUUACGCCCA	-1.56 ± 1.2	
GAAGAGCAAUAUUACGCCAA	-2.51 ± 0.55	
GCUCAGCAAUAUUACGAGUC		-2.48 ± 0.77
CCCGAGCAAUAUUACGCCCG	-3.18 ± 0.65	-1.41 ± 0.65
GUACAGCAAUAUUACGCCAC		-1.73 ± 0.64
UUGCAGCAAUAUUACGAGAA	-1.82 ± 0.71	

Sequence	self-splicing fitness (ln) (30 °C)	self-splicing fitness (ln) (37 °C)
GUAAAGCAAUAUUACGGAGA		-3.62 ± 0.51
CCUAAGCAAUAUUACGAAAC		-4.61 ± 1
ACAGAGCAAUAUUACGAGAG	-3.84 ± 0.53	
UCCAAGCAAUAUUACGAUGC		-1.62 ± 0.69
AGCUAGCAAUAUUACGCUCU	-2.24 ± 0.18	-1.57 ± 0.24
GUCAAGCAAUAUUACGAAGA		-4.69 ± 1
GUAUAGCAAUAUUACGCGAC		-2.34 ± 0.77
CCGCAGCAAUAUUACGCUCC	-2.24 ± 0.51	-1.3 ± 0.75
UCAGAGCAAUAUUACGCCGC	-2.6 ± 0.68	-1.26 ± 0.71
UUUGAGCAAUAUUACGGGUC	-4.22 ± 0.52	
CGUUAGCAAUAUUACGCUAU		-0.681 ± 1.4
UAAGAGCAAUAUUACGGACU	-3.72 ± 1	
GAUAAGCAAUAUUACGCGAU	-5.18 ± 1	
GUGGAGCAAUAUUACGACCG		-1.8 ± 0.67
AGAGAGCAAUAUUACGUGAC	-2.11 ± 0.69	
UCCUAGCAAUAUUACGCAAG	-2.07 ± 0.66	-3.09 ± 0.6
CAUGAGCAAUAUUACGCAAU		-4.06 ± 0.51
GAUGAGCAAUAUUACGCACA	-2.13 ± 0.51	-1.48 ± 0.65
CAUUAGCAAUAUUACGCUUC		-2.67 ± 0.74
GUAGAGCAAUAUUACGAGCC		-1.8 ± 0.67
CUUAAGCAAUAUUACGCAAU	-4.29 ± 0.75	
AGUGAGCAAUAUUACGUGUG		-3.12 ± 0.53
UCCUAGCAAUAUUACGCCUA		-2.68 ± 0.62
UUUAAGCAAUAUUACGAAAC	-3.68 ± 0.61	
GCGGAGCAAUAUUACGGCAC	-1.69 ± 0.56	2.18 ± 0.73
AUUGAGCAAUAUUACGACCA	-1.66 ± 0.71	-2.16 ± 0.58

Sequence	self-splicing fitness (ln) (30 °C)	self-splicing fitness (ln) (37 °C)
ACAGAGCAAUAUUACGCUAA	-5.18 ± 1	-3.43 ± 0.52
AGAGAGCAAUAUUACGAGAC	-4.29 ± 1.1	-3.74 ± 1
AGUGAGCAAUAUUACGCUUA	-4.87 ± 1	
GUUGAGCAAUAUUACGCGCA	-1.02 ± 0.2	-0.636 ± 0.24
AUCGAGCAAUAUUACGAUGG	-3.31 ± 0.56	
CUUCAGCAAUAUUACGCACU		-2.85 ± 0.62
UUCAAGCAAUAUUACGCUAG	-2.23 ± 0.23	-2.32 ± 0.26
GGUCAGCAAUAUUACGCGCU	-3.98 ± 0.74	
ACCGAGCAAUAUUACGUGCC	-3.24 ± 0.6	-1.39 ± 0.69
CCCGAGCAAUAUUACGAAUC		-3.14 ± 0.6
AGUUAGCAAUAUUACGCUAC		-1.77 ± 0.52
GACCAGCAAUAUUACGGCGG	-2.55 ± 0.2	-2.79 ± 0.27
UUUCAGCAAUAUUACGCUUA	-0.378 ± 0.086	0.0227 ± 0.12
CGUUAGCAAUAUUACGGUCU	-1.56 ± 0.18	-1.22 ± 0.16
AACCAGCAAUAUUACGCCGG	-3.39 ± 0.17	-2.09 ± 0.17
UAAGAGCAAUAUUACGUCCG		-1.88 ± 0.56
UAGUAGCAAUAUUACGCACC	0.121 ± 1.1	
UCCCAGCAAUAUUACGCUAC	-3.76 ± 0.6	
UUUCAGCAAUAUUACGAGCC	-2.62 ± 1.1	
GUCAAGCAAUAUUACGGCCG		-2.57 ± 1.1
CUGAAGCAAUAUUACGGGAA		-3.37 ± 0.6
UUCAAGCAAUAUUACGCUGG	-2.29 ± 0.13	-3.05 ± 0.24
UUUGAGCAAUAUUACGGCGC		-2.22 ± 0.64
GCUUAGCAAUAUUACGUCAG	-2.36 ± 0.22	-3.3 ± 0.52
CUUCAGCAAUAUUACGCUUC	-3.62 ± 0.52	-2.73 ± 0.61
AUUUAGCAAUAUUACGGGUU	-4.83 ± 0.51	

Single values from the list.
Value for GGGUAGCAAUAUUACGUCAC under self-splicing fitness (ln) (37 °C): -1.43 ± 0.57
Value for CGCGAGCAAUAUUACGUCCU under self-splicing fitness (ln) (30 °C): -0.995 ± 1.2

The listing continues:

Sequence	self-splicing fitness (ln) (30 °C)	self-splicing fitness (ln) (37 °C)
GUGGAGCAAUAUUACGCUCU	-3.34 ± 1.1	-1.69 ± 0.82
UCGCAGCAAUAUUACGAUUC		-2.77 ± 0.74
UCGGAGCAAUAUUACGAGGU	-3.66 ± 1	-1.6 ± 0.84
CUCAAGCAAUAUUACGCCCG	-0.954 ± 0.17	-2.11 ± 0.21
UUAGAGCAAUAUUACGCAAC	-3.54 ± 0.6	-3.09 ± 0.74
CUCGAGCAAUAUUACGACCG	-2.29 ± 0.57	0.0117 ± 1.2
GAGGAGCAAUAUUACGGCCG	-2.56 ± 0.63	
CCAGAGCAAUAUUACGCGGG		-1 ± 0.92
GGCGAGCAAUAUUACGCAGC		-2.48 ± 0.79
GGCUAGCAAUAUUACGUCAG		-1.39 ± 1.2
GAACAGCAAUAUUACGCCGC	-4.77 ± 0.72	
GCGUAGCAAUAUUACGAGGA		-1.94 ± 0.82
AUGCAGCAAUAUUACGCCUG		-1.88 ± 0.67
GUAGAGCAAUAUUACGCCAA	-2.79 ± 0.62	-0.681 ± 1.4
AUCCAGCAAUAUUACGUUAC	-3.89 ± 0.24	-2.59 ± 0.22
UAUUAGCAAUAUUACGAGCG	-0.705 ± 0.11	-0.219 ± 0.15
AUUGAGCAAUAUUACGCCUG		-2.5 ± 0.54
AAUAAGCAAUAUUACGCCAC	-3.1 ± 0.8	-3.26 ± 0.6
AGUAAGCAAUAUUACGGCGC	-1.02 ± 0.11	-0.433 ± 0.13
CUGUAGCAAUAUUACGACCU	-2.45 ± 0.72	-0.0717 ± 0.66
UGGUAGCAAUAUUACGUAUC	-2.96 ± 0.52	
GAUAAGCAAUAUUACGAGAU	-3.66 ± 0.21	-2.14 ± 0.21
GGCGAGCAAUAUUACGAGAA	-4.04 ± 1.1	
AGUGAGCAAUAUUACGAGAC	-4.63 ± 1	
GCUUAGCAAUAUUACGUCCC		-0.932 ± 0.59
CCAGAGCAAUAUUACGUACA	-4.71 ± 0.58	
